Measured values taken from the supplement of paper PMC10849652.
This is one part of the list.

Amino acid sequences for entries named in this document (tags omitted). A change or cut given only in a name is not applied to a line headed by its entry.
UniProt Q16762: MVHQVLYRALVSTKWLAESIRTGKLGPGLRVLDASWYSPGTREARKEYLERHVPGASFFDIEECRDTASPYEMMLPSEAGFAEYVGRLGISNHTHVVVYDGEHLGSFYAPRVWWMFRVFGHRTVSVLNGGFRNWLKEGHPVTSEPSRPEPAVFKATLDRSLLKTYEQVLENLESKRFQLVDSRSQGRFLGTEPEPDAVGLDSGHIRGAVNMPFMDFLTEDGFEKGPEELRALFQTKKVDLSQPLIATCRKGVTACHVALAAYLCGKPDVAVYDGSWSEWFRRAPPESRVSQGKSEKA
UniProt Q5VYS8: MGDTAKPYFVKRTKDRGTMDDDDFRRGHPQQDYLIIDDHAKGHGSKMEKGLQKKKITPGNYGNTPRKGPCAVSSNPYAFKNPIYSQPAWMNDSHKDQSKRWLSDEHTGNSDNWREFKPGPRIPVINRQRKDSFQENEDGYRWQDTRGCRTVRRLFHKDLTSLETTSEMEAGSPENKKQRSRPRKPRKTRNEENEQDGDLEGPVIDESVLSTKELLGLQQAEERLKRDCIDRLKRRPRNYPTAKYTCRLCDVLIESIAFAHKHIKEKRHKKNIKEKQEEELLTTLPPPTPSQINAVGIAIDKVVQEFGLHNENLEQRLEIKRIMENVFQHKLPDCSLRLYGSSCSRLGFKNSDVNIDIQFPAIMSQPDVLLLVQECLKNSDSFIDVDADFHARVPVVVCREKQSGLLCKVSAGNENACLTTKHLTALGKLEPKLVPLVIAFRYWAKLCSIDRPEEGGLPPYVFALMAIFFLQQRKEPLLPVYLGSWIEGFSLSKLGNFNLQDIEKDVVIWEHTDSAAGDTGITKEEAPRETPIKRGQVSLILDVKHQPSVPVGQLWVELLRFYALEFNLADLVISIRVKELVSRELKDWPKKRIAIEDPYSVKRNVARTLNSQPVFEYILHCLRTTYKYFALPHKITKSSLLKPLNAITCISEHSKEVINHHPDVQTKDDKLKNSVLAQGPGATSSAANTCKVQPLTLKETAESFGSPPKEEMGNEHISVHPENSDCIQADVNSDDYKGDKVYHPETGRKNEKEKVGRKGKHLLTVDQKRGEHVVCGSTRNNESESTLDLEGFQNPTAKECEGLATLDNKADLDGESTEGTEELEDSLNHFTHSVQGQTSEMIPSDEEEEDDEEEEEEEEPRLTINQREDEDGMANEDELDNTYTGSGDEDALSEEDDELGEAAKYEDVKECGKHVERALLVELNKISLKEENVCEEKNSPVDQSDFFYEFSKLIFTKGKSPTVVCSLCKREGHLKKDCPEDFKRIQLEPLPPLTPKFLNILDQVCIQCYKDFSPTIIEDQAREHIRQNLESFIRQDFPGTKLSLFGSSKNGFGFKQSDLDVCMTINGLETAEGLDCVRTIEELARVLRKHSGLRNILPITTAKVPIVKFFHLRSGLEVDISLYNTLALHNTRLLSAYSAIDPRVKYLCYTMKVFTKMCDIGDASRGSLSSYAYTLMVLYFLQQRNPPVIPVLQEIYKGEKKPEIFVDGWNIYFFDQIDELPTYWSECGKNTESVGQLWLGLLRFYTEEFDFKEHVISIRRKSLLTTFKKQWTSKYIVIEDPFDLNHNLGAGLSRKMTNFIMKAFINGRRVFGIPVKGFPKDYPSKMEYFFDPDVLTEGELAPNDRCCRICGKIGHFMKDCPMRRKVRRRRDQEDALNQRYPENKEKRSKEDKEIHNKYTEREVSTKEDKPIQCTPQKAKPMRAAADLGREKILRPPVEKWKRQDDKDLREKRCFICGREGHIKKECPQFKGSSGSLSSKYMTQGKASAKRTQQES
UniProt P51965: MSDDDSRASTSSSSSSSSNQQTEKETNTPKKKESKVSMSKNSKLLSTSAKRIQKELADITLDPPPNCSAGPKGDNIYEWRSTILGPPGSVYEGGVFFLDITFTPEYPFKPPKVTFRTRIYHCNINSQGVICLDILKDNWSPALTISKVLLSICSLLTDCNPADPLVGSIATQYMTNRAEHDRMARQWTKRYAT
UniProt Q9UJ04: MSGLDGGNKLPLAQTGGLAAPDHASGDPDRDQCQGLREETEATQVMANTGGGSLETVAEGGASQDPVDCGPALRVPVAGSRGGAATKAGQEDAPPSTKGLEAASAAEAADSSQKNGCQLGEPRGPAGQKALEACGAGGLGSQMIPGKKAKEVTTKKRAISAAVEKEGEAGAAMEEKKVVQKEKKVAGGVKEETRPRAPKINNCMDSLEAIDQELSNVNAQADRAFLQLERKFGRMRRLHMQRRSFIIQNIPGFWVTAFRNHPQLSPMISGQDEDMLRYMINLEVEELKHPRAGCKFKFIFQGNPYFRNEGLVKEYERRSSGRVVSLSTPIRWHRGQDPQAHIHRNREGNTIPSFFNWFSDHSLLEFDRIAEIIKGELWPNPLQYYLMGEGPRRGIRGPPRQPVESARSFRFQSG
UniProt Q16881, whole entry, looked up: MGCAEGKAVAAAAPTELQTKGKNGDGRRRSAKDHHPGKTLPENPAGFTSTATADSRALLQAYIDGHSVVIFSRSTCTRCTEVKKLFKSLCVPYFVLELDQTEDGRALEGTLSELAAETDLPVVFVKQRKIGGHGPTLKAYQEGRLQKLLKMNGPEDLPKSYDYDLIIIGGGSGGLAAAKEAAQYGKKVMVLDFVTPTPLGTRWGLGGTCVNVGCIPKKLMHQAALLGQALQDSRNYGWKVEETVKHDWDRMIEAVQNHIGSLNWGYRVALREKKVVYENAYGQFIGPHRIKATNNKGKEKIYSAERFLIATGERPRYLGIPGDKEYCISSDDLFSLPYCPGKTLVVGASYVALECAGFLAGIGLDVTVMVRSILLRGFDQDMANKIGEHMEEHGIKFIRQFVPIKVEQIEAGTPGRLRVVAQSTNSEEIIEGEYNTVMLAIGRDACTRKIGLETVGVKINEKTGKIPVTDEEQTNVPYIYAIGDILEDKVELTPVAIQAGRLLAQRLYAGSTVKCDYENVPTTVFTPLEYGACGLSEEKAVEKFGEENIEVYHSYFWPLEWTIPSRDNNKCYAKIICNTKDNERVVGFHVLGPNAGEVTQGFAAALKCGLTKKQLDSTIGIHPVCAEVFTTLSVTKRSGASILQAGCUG
UniProt Q6PGP7, whole entry, looked up: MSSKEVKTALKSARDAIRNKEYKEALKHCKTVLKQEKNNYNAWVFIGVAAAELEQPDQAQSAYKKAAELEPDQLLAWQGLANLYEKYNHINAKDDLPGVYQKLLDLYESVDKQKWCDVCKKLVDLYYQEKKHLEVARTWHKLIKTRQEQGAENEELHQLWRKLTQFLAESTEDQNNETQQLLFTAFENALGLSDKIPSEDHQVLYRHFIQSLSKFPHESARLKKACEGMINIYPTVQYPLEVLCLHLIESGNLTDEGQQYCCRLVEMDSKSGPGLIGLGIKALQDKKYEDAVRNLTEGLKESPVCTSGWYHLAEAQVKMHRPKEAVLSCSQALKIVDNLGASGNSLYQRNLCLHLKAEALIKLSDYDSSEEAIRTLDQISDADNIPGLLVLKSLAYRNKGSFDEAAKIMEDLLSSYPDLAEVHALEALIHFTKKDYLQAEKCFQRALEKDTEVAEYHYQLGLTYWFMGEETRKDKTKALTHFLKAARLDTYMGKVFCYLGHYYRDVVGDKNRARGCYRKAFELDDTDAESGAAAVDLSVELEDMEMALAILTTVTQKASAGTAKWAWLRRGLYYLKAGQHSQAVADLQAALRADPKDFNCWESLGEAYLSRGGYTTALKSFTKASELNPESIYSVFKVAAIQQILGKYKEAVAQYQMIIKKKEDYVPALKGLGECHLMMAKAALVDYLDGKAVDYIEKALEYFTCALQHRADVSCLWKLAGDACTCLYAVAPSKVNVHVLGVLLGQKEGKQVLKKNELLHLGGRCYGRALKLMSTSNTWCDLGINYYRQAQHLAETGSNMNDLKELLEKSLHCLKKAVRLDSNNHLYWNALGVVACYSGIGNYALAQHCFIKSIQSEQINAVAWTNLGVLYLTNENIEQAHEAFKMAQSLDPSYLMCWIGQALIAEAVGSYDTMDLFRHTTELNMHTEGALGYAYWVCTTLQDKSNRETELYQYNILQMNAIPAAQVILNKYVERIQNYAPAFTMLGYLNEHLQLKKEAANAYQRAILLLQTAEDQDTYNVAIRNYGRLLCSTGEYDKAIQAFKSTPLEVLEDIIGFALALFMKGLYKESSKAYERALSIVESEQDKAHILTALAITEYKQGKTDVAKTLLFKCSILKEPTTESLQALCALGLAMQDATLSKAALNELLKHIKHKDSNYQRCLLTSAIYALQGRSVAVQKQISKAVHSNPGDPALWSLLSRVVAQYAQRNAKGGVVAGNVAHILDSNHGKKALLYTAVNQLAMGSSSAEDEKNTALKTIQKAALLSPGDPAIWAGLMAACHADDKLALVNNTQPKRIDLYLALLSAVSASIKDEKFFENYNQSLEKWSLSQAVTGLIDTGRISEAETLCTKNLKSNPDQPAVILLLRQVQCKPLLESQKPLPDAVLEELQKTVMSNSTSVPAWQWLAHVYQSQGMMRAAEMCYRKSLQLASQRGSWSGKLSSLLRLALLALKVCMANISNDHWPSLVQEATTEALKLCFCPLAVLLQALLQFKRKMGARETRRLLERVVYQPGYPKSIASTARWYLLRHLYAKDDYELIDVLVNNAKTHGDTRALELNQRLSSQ
UniProt Q6DKK2: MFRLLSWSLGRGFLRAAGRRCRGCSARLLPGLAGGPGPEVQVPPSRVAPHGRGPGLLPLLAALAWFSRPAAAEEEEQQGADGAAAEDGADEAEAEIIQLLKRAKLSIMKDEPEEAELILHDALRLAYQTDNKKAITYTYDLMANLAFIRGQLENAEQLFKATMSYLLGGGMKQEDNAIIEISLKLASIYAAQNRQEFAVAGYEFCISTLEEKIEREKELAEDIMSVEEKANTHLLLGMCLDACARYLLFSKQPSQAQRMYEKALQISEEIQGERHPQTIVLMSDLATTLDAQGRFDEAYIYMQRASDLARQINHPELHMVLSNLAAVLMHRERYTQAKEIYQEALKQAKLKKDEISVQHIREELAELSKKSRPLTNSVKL
UniProt Q96ET8: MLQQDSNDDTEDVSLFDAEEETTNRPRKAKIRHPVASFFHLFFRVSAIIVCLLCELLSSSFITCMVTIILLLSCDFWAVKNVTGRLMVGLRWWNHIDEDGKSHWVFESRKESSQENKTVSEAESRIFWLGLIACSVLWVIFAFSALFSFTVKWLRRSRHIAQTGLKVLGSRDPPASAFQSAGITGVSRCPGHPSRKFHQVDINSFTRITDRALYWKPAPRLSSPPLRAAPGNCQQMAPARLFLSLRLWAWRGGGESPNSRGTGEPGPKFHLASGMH
UniProt Q9BQE3, whole entry, looked up: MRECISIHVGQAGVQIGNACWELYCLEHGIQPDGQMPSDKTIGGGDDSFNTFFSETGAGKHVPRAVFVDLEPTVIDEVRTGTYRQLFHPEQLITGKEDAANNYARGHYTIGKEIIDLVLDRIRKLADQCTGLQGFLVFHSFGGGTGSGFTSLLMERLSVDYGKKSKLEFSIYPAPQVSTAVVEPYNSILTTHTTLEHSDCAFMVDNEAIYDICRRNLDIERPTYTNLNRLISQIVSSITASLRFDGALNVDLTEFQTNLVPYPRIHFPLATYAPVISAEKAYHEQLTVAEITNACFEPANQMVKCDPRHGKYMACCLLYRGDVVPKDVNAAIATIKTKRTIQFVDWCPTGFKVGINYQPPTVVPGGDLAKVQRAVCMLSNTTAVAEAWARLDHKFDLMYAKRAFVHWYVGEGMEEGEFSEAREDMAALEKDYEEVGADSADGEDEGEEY
UBE2L5, A0A1B0GUS4, UniProt A0A1B0GUS4, whole entry, looked up: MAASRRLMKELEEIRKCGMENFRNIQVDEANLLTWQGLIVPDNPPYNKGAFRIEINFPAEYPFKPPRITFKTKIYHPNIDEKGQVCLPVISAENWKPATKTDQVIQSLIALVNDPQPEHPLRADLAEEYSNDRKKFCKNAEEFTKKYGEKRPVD
UniProt A2RUC4: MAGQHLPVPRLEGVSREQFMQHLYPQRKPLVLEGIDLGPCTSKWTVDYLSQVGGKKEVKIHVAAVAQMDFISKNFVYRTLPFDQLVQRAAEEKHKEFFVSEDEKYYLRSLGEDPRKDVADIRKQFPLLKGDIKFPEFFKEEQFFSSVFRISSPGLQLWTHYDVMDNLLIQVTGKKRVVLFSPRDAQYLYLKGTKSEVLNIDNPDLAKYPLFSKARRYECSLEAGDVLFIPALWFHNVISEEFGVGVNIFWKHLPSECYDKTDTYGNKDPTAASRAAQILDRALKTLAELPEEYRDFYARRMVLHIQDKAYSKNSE
UniProt P63146, whole entry, looked up: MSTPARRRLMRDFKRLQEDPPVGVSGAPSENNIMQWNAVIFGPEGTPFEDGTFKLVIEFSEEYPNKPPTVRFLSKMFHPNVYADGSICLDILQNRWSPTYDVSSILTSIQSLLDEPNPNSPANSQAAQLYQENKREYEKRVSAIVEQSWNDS
UniProt Q969M7: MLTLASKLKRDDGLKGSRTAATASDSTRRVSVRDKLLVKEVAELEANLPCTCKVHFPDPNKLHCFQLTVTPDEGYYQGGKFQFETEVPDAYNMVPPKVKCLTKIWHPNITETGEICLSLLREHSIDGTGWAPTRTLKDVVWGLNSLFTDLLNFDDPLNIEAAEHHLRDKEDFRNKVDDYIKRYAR

Experiments:
Test in all cases: log2 fold change, soluble protein after heating vs DMSO (PISA); higher = thermal stabilisation; K562 cells, 10 uM, 30 min; active = over 0.2 and 3.5 SD of the protein, either way, in both replicates (recomputed)
[1] = compound: CC1=C(SC2=C1C(=N[C@H](C3=NN=C(N32)C)CC(=O)N)C4=CC=C(C=C4)Cl)C
Procedure, shortened: (§1)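 K562 cells at 2×10^6 cells/mL were treated for 30 min with 10 μM compound, and aliquots were heated for 3 min over 48°C-58°C before pooling. Extraction used PBS with 0.5% NP-40 at 4°C, and soluble protein was the supernatant after 21,000xg for 90 min, measured by TMTpro 16plex LC-MS/MS with channel sums equalised. Thermal stability values, relative to control samples and from duplicates, are log2 fold changes.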

[2] = compound: CC1=C2C(=CC=C1)N=C(N(C2=O)C3=CC=CC=C3C)CN4C=NC5=C(N=CN=C54)N
Procedure, shortened: as §1

[3] = compound: c1ccc([C@@H]2C[C@H]2NC2CCNCC2)cc1
Procedure, shortened: as §1

[4] = compound: C1=CC=C(C=C1)[C@H](COC2=CC3=C(C=C2)NC(=O)N3)NC(=O)C4=CC=CN(C4=O)CC5=CC(=C(C=C5)F)F
Procedure, shortened: as §1

[5] = compound: Cc1sc2c(c1C)C(c1ccc(Cl)cc1)=N[C@@H](CC(=O)OC(C)(C)C)c1nnc(C)n1-2
Procedure, shortened: as §1

Measured: log2 fold change

TST (UniProt Q16762)
inactive: [1] 0.213 | [2] -0.038 | [3] -0.308

UBE2K (UniProt P61086)
inactive: [4] -0.037 | [1] 0.014 | [2] 0.005 | [5] -0.031 | [3] 0.002

TUT7 (UniProt Q5VYS8)
inactive: [1] 0.025 | [5] 0.115 | [3] 0.033

TYW1 (UniProt Q9NV66)
inactive: [4] 0.017 | [1] -0.022 | [2] 0.039 | [5] -0.005 | [3] -0.091

UBE2E1 (UniProt P51965)
inactive: [4] -0.107 | [2] 0.296 | [5] 0.036

TSPYL4 (UniProt Q9UJ04)
inactive: [2] 0.268

TWNK (UniProt Q96RR1)
inactive: [4] 0.047 | [2] -0.191 | [5] -0.034

TSPAN31 (UniProt Q12999)
inactive: [1] -0.1 | [5] 0.116 | [3] 0.04

UBAP2L (UniProt F8W726)
inactive: [4] -0.05 | [5] 0.046

TXNRD1 (UniProt Q16881)
inactive: [4] -0.066 | [1] 0.086 | [2] 0.023 | [5] -0.031 | [3] -0.032

TTC37 (UniProt Q6PGP7)
inactive: [4] 0.042 | [2] 0.177

TUBGCP5 (UniProt Q96RT8)
inactive: [4] 0.042 | [1] -0.05 | [5] 0.051 | [3] 0.023

TTC19 (UniProt Q6DKK2)
inactive: [4] -0.046 | [1] -0.013 | [2] 0.074 | [5] -0.005 | [3] -0.007

TVP23C (UniProt Q96ET8)
inactive: [1] 0.048 | [2] 0.041 | [5] 0.029 | [3] 0.086

TUBA1C (UniProt Q9BQE3)
inactive: [4] 0.008 | [1] 0.089 | [2] -0.015 | [5] 0.006 | [3] -0.012

TUFM (UniProt P49411)
inactive: [4] -0.031 | [1] 0.106 | [2] 0.093 | [5] 0.003 | [3] -0.058

TTC14 (UniProt Q96N46)
inactive: [4] 0.038 | [1] 0.434 | [5] -0.059 | [3] -0.008

TSPYL1 (UniProt Q9H0U9)
inactive: [1] -0.008 | [3] -0.022

TTF2 (UniProt Q9UNY4)
inactive: [1] 0.06 | [2] 0.024 | [5] 0.127 | [3] -0.041

TSPAN4 (UniProt O14817)
inactive: [4] 0.006 | [5] 0.128

TUBGCP4 (UniProt Q9UGJ1)
inactive: [4] -0.252 | [1] 0.224 | [5] 0.069 | [3] 0.159

UBE2L5, A0A1B0GUS4
inactive: [1] 0.014 | [2] 0.285 | [5] -0.004 | [3] -0.059

Two entries picked at random from those above, as already listed:
TUFM (UniProt P49411)
inactive: [4] -0.031 | [1] 0.106 | [2] 0.093 | [5] 0.003 | [3] -0.058

TTC19 (UniProt Q6DKK2)
inactive: [4] -0.046 | [1] -0.013 | [2] 0.074 | [5] -0.005 | [3] -0.007

Next part.

TYW5 (UniProt A2RUC4)
inactive: [2] -0.057 | [5] -0.004

TTC26
inactive: [4] 0.06 | [2] 0.02 | [5] 0.198

TXNRD1 isoform 7 (UniProt Q16881)
inactive: [4] 0.046 | [2] 0.138

U2AF1L5 (UniProt P0DN76)
inactive: [4] -0.008 | [2] -0.075 | [5] 0.057

TTC12 isoform 2 (UniProt Q9H892)
inactive: [4] 0.086 | [1] -0.163 | [5] -0.149 | [3] 0.125

UBE2B (UniProt P63146)
inactive: [4] 0.074 | [1] 0.13 | [2] 0.181 | [5] 0.025 | [3] -0.069

TTC21B (UniProt Q7Z4L5)
inactive: [5] -0.016

TTK (UniProt P33981)
inactive: [2] -0.15

TXNDC16 (UniProt Q9P2K2)
inactive: [1] -0.066 | [2] 0.064 | [5] 0.012 | [3] 0.013

TUBA8 (UniProt Q9NY65)
inactive: [4] 0.107 | [1] -0.676 | [2] -0.194 | [5] 0.023 | [3] 0.031

UBE2F isoform 2 (UniProt Q969M7)
inactive: [4] 0.015 | [1] 0.022 | [2] 0.003 | [5] -0.078 | [3] 0.063
